This note sets out measurements from PMC8529007.

Amino acid sequences for entries named in this document (tags omitted). Residues count along the entry.
UniProt P05107, residues 23-769: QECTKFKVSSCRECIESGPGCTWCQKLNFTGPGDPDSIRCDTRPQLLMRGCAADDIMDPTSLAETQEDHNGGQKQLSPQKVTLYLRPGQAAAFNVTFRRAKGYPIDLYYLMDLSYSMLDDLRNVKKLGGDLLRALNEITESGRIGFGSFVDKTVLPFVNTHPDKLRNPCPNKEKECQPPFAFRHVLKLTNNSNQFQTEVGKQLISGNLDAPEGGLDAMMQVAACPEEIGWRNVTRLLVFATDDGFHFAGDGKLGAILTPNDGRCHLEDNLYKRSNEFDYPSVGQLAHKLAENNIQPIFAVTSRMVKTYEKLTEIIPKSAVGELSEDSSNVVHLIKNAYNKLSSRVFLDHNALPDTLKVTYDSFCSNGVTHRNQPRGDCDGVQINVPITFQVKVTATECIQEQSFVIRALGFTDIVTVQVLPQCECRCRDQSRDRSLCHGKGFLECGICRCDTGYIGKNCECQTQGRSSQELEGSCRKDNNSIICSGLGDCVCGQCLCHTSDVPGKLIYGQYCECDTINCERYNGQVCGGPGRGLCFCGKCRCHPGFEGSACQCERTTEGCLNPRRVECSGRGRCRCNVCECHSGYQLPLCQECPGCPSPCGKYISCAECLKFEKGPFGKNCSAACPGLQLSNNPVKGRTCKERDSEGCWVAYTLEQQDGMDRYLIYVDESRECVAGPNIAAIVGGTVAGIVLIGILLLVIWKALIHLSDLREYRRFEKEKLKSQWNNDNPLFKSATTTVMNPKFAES
UniProt P11142: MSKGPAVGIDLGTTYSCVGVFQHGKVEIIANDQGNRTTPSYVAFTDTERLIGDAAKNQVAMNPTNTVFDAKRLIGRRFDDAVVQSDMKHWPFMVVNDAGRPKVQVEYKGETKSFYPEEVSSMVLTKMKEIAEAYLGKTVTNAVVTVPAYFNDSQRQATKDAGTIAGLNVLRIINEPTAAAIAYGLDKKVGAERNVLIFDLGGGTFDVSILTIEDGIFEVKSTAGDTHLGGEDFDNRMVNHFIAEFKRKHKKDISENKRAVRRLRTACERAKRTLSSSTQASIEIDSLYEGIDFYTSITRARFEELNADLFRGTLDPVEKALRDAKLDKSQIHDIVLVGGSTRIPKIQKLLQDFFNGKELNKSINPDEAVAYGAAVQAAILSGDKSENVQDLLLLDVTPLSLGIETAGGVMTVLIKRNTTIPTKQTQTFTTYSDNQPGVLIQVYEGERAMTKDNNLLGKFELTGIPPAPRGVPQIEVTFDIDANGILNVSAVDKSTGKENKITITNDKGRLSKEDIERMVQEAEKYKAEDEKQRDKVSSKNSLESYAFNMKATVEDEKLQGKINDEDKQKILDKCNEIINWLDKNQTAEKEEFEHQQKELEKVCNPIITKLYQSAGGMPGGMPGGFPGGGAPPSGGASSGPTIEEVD
UniProt P19474: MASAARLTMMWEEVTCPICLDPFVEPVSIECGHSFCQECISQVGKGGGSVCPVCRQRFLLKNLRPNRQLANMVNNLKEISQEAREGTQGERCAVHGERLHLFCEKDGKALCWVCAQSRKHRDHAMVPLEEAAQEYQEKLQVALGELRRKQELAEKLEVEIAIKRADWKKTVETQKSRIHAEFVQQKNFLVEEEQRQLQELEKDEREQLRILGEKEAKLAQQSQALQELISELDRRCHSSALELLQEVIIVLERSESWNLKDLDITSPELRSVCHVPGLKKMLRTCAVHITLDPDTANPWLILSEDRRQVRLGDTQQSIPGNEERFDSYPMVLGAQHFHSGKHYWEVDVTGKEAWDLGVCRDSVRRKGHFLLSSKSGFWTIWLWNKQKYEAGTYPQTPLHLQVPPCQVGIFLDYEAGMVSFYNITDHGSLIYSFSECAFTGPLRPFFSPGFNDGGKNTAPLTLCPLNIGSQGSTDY

These are yes or no findings as the source states them, for the method shown. Binding seen in cells or lysates may run through a third protein. Some binding calls cover weakened binding; strength is not graded here.

The target of this assay is CD18 (integrin β2), dHL-60 cells (human (endogenous in dHL-60)) (UniProt P05107). Briefly: co-IP; reciprocal co-IP in dHL-60 cells; Pierce Crosslink IP kit, primary antibody cross-linked to protein A/G plus agarose, precleared cytosolic fraction, overnight at 4°C.

Consider “Heat shock cognate 71 kDa protein (Hsc70), dHL-60 cells (from UniProt P11142 1-646)”, for which the binding entry is on record as “binds”.

On to “tripartite motif-containing protein 21 (TRIM21), dHL-60 cells (from UniProt P19474 1-475)”, for which the binding result is recorded as “binds”.
